Measured values as given in PMC3149661.
These are yes or no findings as the source states them, for the method shown. Binding seen in cells or lysates may run through a third protein. Some entries that bind do so weakly or less than the wild type.

Amino acid sequences for entries named in this document (tags omitted). A change or cut given only in a name is not applied to a line headed by its entry. Chains listed by the source or under a name are the forms on record and can include a tag or linker.
UniProt Q14457: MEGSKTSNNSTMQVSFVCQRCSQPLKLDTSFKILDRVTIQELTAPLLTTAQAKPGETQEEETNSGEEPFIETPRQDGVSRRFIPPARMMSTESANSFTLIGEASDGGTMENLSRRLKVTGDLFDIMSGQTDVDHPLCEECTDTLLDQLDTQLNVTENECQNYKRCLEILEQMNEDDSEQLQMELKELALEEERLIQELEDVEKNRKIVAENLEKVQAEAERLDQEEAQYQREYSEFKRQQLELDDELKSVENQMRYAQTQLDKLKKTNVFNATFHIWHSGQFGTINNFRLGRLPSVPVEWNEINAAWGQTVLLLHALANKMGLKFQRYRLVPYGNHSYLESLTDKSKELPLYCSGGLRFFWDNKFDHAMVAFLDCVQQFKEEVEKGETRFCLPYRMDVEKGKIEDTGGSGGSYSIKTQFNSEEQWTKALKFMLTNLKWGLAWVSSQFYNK
UniProt P10415: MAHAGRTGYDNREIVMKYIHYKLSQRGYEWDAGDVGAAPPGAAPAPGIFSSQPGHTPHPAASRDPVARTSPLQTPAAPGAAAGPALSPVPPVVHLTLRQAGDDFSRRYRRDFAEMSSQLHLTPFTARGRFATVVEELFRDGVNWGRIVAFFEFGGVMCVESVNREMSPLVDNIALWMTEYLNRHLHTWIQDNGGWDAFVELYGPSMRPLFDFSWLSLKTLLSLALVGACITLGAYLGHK
nonphosphorylatable Myc-Bcl-2 (AAA Myc-Bcl-2) (P10415, form named): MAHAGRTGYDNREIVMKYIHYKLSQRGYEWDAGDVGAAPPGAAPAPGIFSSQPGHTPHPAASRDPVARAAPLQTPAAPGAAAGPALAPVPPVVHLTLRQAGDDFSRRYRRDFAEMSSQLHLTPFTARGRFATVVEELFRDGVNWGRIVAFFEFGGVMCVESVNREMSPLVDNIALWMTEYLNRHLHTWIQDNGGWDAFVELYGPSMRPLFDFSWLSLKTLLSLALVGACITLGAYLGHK

Experiments:
Flag-tagged Beclin 1 [1] = molecular target: Flag-tagged Beclin 1 (UniProt Q14457); assay: co-IP; cells expressing Flag-Beclin 1 and Bcl-2 or C229A Bcl-2, with or without NO donors; method read from the text, the legends of Figures S2C and S2D were not shown
Flag-tagged Beclin 1 [2] = molecular target: Flag-tagged Beclin 1 (UniProt Q14457); assay: co-IP; HeLa cells transfected with Flag-Beclin 1 (or empty Flag) and the partner; immunoprecipitation with anti-Flag M2 affinity agarose gel; immunoblotting with anti-Myc or anti-Vps34 antibody; cells untreated or treated with NO donors

binding (Flag-tagged Beclin 1 [1])	binding (Flag-tagged Beclin 1 [2])	Substance
binds	–	Bcl-2 (from UniProt P10415 1-239)
–	binds	nonphosphorylatable Myc-Bcl-2 (AAA Myc-Bcl-2) (from UniProt P10415 1-239)
binds	–	C229A Bcl-2 (from UniProt P10415 1-239)
–	binds	Myc-tagged Bcl-2 (from UniProt P10415 1-239)
